In PMC12040169 (PLOS Biology, 2025):
This is one part of the list.

tested on: T1, CTL2-GFP (C. trachomatis L2/434/Bu, GFP-expressing); parameters: species or system HeLa; Intracellular C. trachomatis growth in HeLa cells, bulk GFP fluorescence relative to DMSO; settings: bulk GFP, single well; 28.5 h, 10 µM; inhibitor
T1 construct: L2/434/Bu, GFP-expressing

Row | SMILES | % of control remaining
1 | COc1ccc(NC(=O)CSc2nnc(-c3ccncc3)n2-c2ccc(C)cc2)cc1Cl [CBK266187] | 149.838%
2 | CC(C)CC(=O)N1C[C@H]2CCCN(Cc3ccccn3)[C@H]2C1 [CBK285269] | 127.148%
3 | O=C(c1cncc(-c2[nH]nnc2-c2ccccc2)c1)N1CCCC1 [CBK160360] | 127.412%
4 | Cc1cc(C)nc(N2CCC(CC(=O)NCCCc3ccc(F)cc3)CC2)n1 [CBK285995] | 128.213%
5 | O=C(Nc1nc(-c2cccc([N+](=O)[O-])c2)cs1)c1ccc(S(=O)(=O)N2CCCC2)cc1 [CBK102813] | 113.839%
6 | CO[C@H]1CN(C)C[C@@H]1NC(=O)c1cccc2c1NCCC2 [CBK307107] | 118.003%
7 | CCCCOC(=O)CCNc1n[nH]c(=O)[nH]c1=O [CBK027838] | 105.048%
8 | COc1ccc(C2Nc3ccccc3C(=O)N2c2ccc(C)cc2)cc1Cn1nc(C)c([N+](=O)[O-])c1C (stereo not drawn) [CBK263703] | 67.9054%
9 | Cc1nc(C(F)(F)F)ccc1C(=O)NCC(C)(C)N1CCCCC1 [CBK281864] | 162.92%
10 | O=C(/C=C/c1ccccc1)Oc1cccc(NC(=O)C2CC(=O)N(c3ccccc3)C2)c1 (stereo not drawn) [CBK264330] | 103.429%
11 | CC(C)Nc1cncc(OCCCc2ccncc2)n1 [CBK115881] | 115.713%
12 | Cc1cc2c(cc1C)N(C(=O)CSc1ncn[nH]1)C(C)(C)c1ssc(=S)c1-2 [CBK263786] | 109.745%
13 | CCN1CCCCC1CNC(=O)c1sc(C)nc1C (stereo not drawn) [CBK282206] | 113.209%
14 | CN1CCN(Cc2c(O)ccc3occ(C(=O)c4ccccc4)c23)CC1 [CBK111438] | 108.966%
15 | CCC(C)(C)c1ccc(S(=O)(=O)NCC2CC2)cc1 [CBK044994] | 113.52%
16 | O=C(c1ccno1)N1CCC(Cc2ccccc2)CC1 [CBK200185] | 172.434%
17 | Nc1ncc(-c2ccc(C(F)(F)F)cc2)c(C2CCCN(C(=O)c3ccccc3)C2)n1 (stereo not drawn) [CBK285790] | 114.51%
18 | N#Cc1ccc(COc2cccc(Cl)c2Cl)cc1 [CBK002611] | 170.813%
19 | CCNC(=O)N1CC2(CCN(CCn3cccc3)CC2)c2ccccc21 [CBK143945] | 100%
20 | NC(=O)CN1CCC(Cc2ccccc2)CC1 [CBK138319] | 97.2242%
21 | Cc1c(C(=O)N2CCn3c(C)nnc3C2)sc2cccc(F)c12 [CBK304923] | 111.687%
22 | O=C(C1=C(O)C(=O)N(CCCn2ccnc2)C1c1cccc([N+](=O)[O-])c1)c1cccs1 (stereo not drawn) [CBK264591] | 100%
23 | CC(=O)Nc1ccc(/C(C)=N\NC(=O)CCN2CCCCC2)cc1 [CBK263509] | 100%
24 | COc1cc(-c2cn3ccnc3c(N3CCN(c4ccncc4)CC3)n2)cc(OC)c1OC [CBK037896] | 153.269%
25 | CCN(C(=O)c1ccc(=O)[nH]c1)C(CC1CCCCC1)c1ccccc1 (stereo not drawn) [CBK062678] | 58.7956%
26 | COc1ccc(-c2cn(-c3ccc(OC(F)(F)F)cc3)nn2)cc1 [CBK113024] | 122.351%

Individual results from the entries so far.
% of control remaining, Cc1cc(C)nc(N2CCC(CC(=O)NCCCc3ccc(F)cc3)CC2)n1 [CBK285995] reads 128.213%
% of control remaining, COc1ccc(C2Nc3ccccc3C(=O)N2c2ccc(C)cc2)cc1Cn1nc(C)c([N+](=O)[O-])c1C (stereo not drawn) [CBK263703] reads 67.9054%
% of control remaining, CC(C)CC(=O)N1C[C@H]2CCCN(Cc3ccccn3)[C@H]2C1 [CBK285269] reads 127.148%
% of control remaining, Cc1nc(C(F)(F)F)ccc1C(=O)NCC(C)(C)N1CCCCC1 [CBK281864] reads 162.92%
% of control remaining, NC(=O)CN1CCC(Cc2ccccc2)CC1 [CBK138319] reads 97.2242%
% of control remaining, O=C(/C=C/c1ccccc1)Oc1cccc(NC(=O)C2CC(=O)N(c3ccccc3)C2)c1 (stereo not drawn) [CBK264330] reads 103.429%

Going on with the list:

Row | SMILES | % of control remaining
27 | O=C(NCCSCc1c(F)cccc1Cl)Nc1ccccc1 [CBK265340] | 98.1077%
28 | COC(=O)Cn1c(=O)c2c(nc3oc(C(C)(C)C)cn32)n(C)c1=O [CBK306029] | 105.039%
29 | CN1[C@@H](CCC(=O)N2CCN(c3ccccn3)CC2)CNC(=O)[C@H]2NCC[C@H]21 [CBK289031] | 107.288%
30 | O=C(O)c1ccc(NC2OC(CO)C(O)C2O)cc1 (stereo not drawn) [CBK218836] | 113.595%
31 | O=C(CN1CCC(c2ccc(F)cc2)CC1)Nc1nccs1 [CBK283566] | 109.785%
32 | Fc1cccc(-c2nc(-c3cccnc3)no2)c1 [CBK270260] | 150.036%
33 | CC(=O)c1ccccc1-c1cnc(N(C)S(C)(=O)=O)c(C(=O)NCCc2ccccc2)c1 [CBK076516] | 126.497%
34 | N=C(N)SCCCCSC(=N)N [CBK278304B] | 106.142%
35 | CCC1(CC)OC(N[C@@H](CO)c2ccccc2)=NC1=O [CBK126756] | 139.014%
36 | CN1CCN(C(=S)SCc2nc(N)nc(Nc3ccc(F)cc3)n2)CC1 [CBK265230] | 125.811%
37 | CCC1(C)CC(=O)c2cc(NC(=O)N(CCO)CCO)ccc2O1 (stereo not drawn) [CBK307003] | 100.735%
38 | CC(C)NC(=O)c1sc2ccccc2c1C1CN(C(=O)CC2CCCCC2)CCO1 (stereo not drawn) [CBK285869] | 131.843%
39 | COc1ccc(C(=O)NC(NCc2ccco2)C(Cl)(Cl)Cl)cc1 (stereo not drawn) [CBK262279] | 65.0542%
40 | CC(=O)Nc1ccc(S(=O)(=O)N2CCC(N3CCOCC3)CC2)cc1 [CBK264653G] | 92.7584%
41 | O=C(NCCCC1CCOC1)c1cc2ccc(F)cc2[nH]1 (stereo not drawn) [CBK283213] | 70.9266%
42 | NC1CCCN(C(=O)c2ccc(Oc3cccc(Br)c3)nc2)C1 (stereo not drawn) [CBK304747] | 80.6031%
43 | Cc1cc(C2CCCCCN2C(=O)c2cc(C(C)C)on2)on1 (stereo not drawn) [CBK281733] | 154.724%
44 | CS(=O)(=O)N1CC2(CCN(C(=O)[C@@H](N)COCc3ccccc3)CC2)c2ccccc21 [CBK022597C] | 93.5536%
45 | COCCn1cc(C(=O)N2CCOC3CCCCC32)c2ccccc21 (stereo not drawn) [CBK305288] | 120.747%
46 | COc1ccc(Cc2nc3ccccc3n2CCc2ccccc2)cc1 [CBK266385] | 122.774%
47 | CSc1nc2ccc(Nc3cc(C)nc4ncnn34)cc2s1 [CBK297724] | 106.196%
48 | O=C(COCc1nc2ccccc2[nH]1)N1CCC(c2ccccc2)C1 (stereo not drawn) [CBK281840] | 169.205%
49 | Cc1nc2sccn2c1-c1csc(Nc2cccc(C(=O)O)c2)n1 [CBK263291B] | 108.722%
50 | CN(C)c1ccc(-c2[nH][nH]c(=O)c2CCCN)cc1 [CBK288406] | 119.771%
51 | CCCCc1ccc(NC(=S)NC(=O)c2ccc(OC)c(OC)c2)cc1 [CBK157691] | 104.945%
52 | O=C(NC1Cc2ccccc2C1)c1cscn1 [CBK200363] | 109.895%

Row | SMILES | % of control remaining
53 | CS(=O)(=O)c1ccc(CNC(=O)c2ccccc2Nc2cccc(C(F)(F)F)c2)cc1 [CBK149580] | 102.886%
54 | COc1cccc(C(=O)N2CCN(C)C(=O)C2Cc2ccccc2-c2ccccc2)c1OC (stereo not drawn) [CBK285828] | 105.713%
55 | CSCCCN1C(=O)CN(Cc2ccccc2)C1=O [CBK162363] | 83.0106%
56 | COc1ccc([C@@]23CC[C@H](NC(=O)CS(=O)(=O)c4ccccc4)C[C@@H]2N(C)CC3)cc1OC [CBK036445] | 147.03%
57 | COCc1cc(C)n(CC(=O)Nc2ccc(N3CCOCC3)cc2)c(=O)c1C#N [CBK270190] | 136.329%
58 | O=C(O)c1ccc(CNC(=O)c2ccc3c(c2)C(=O)N(CC2CCCO2)C3=O)cc1 (stereo not drawn) [CBK264256] | 125.433%
59 | Cc1ccc2c(c1)CCN(S(C)(=O)=O)C21CCN(CCCOc2ccccc2)CC1 [CBK081066] | 100%
60 | COc1cnc(-c2cccc(C(=O)N(C)C)c2)c(NC(=O)c2ccccc2)n1 [CBK145385] | 104.325%
61 | Cc1ccc(NC(=O)c2cnc3sc(C)cn3c2=O)cc1 [CBK287711] | 116.471%
62 | CC(NC(=O)C1CCN(CCn2cnc3c2c(=O)n(C)c(=O)n3C)CC1)c1ccccc1 (stereo not drawn) [CBK148624] | 151.383%
63 | CC1Oc2ccccc2OC1C(=O)Nc1ccc([N+](=O)[O-])cc1Cl (stereo not drawn) [CBK269412] | 108.885%
64 | O=C(NCCN1CCCC1)c1ccc(N2CCN(C(=O)c3ccccc3C(F)(F)F)CC2)nn1 [CBK153217] | 124.451%
65 | COc1cc2c(cc1-c1cn(CCN3CCCOC3=O)nn1)CCC2 [CBK306515] | 105.027%
66 | Cc1cc(C)n(CC(C)CNC(=O)Cc2csc(C(C)(C)C)n2)n1 (stereo not drawn) [CBK305340] | 104.908%
67 | CCNC1(Cc2cc(C(=O)N3CCCCC3)on2)COC1 [CBK289671] | 142.398%
68 | COc1cc(/C=N\Nc2nnc3c(n2)[nH]c2c(C)cccc23)cc(Br)c1O [CBK262375] | 112.785%
69 | COc1ccccc1OCc1ccc(C(=O)N2CCN(c3cccc(C(F)(F)F)c3)CC2)o1 [CBK074417] | 45.3655%
70 | CN(C)CCN(C)[C@H]1CCCC[C@@H]1N(C)C(=O)Cc1ccc(Br)cc1 [CBK023819C] | 64.4125%
71 | COc1ccc(OCCNC(=O)C2(c3ccc(OC)cc3)CC2)cc1 [CBK149821] | 163.2%
72 | Oc1c(C(Nc2cccnc2)c2ccccc2OCc2ccccc2)ccc2cccnc12 (stereo not drawn) [CBK268587] | 50.2787%
73 | CCOc1ccsc1C(=O)N1CCc2ccccc2C1 [CBK200339] | 136.16%
74 | O=C(Nc1nnc(C2=COCCO2)o1)c1ccc(Cl)cc1Cl [CBK287419] | 135.286%
75 | COc1ccc(NS(=O)(=O)c2ccc(NC(=S)NC(=O)C(C)(C)C)cc2)cc1 [CBK268990] | 62.5534%
76 | CCOc1cc(C)c(-c2cc(N)[nH]n2)cc1OCC [CBK288216] | 143.845%
77 | O=C(/C=C/c1ccc([N+](=O)[O-])cc1)Nc1ccc(O)cc1C(=O)O [CBK263613] | 100%
78 | CS(=O)(=O)c1ccc(-c2c[nH]c([C@@H]3COCCN3Cc3c[nH]c4ccccc34)n2)cc1 [CBK289321] | 136.967%
